Measured values reported in the supplement of paper PMC12889115.
Some of the results follow. Values are raw readings; no control value is given beside them.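 In the initial screen, polymyxin B was used at a concentration that permeabilizes Salmonella's outer membrane but not its inner membrane. Maximum growth was set by DMSO wells with or without polymyxin B. Since plates varied, data were ranked per plate, and compounds giving the lowest OD600 advanced as hits.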

Tested on: Salmonella enterica serovar Typhimurium SL1344
Test: bacterial growth OD600 after 18 h with compound and polymyxin B; higher = more bacterial growth (less inhibition)
Settings: 50 µM, Mueller-Hinton broth

| Compound | bacterial growth OD600 (polymyxin B 1 µg/mL) | bacterial growth OD600 (polymyxin B 0.75 µg/mL) |
| --- | --- | --- |
| CCn1ccnc1CN1CCCC(N2CCN(c3ccccc3OC)CC2)C1 (stereo unspecified) | 0.895 | – |
| CC1(C)Cc2nc(C(C)(C)C)ncc2C(NS(=O)(=O)c2ccccc2)C1 (stereo unspecified) | 0.864 | – |
| Cc1csc(C(C)N(C)C(=O)c2cc(NS(=O)(=O)N(C)C)cc3nc(CC(C)C)n(C)c23)n1 (stereo unspecified) | – | 0.807 |
| COc1ccc(CCN2CCCC(CN(C)C(=O)Nc3ccccc3F)C2)cc1 (stereo unspecified) | 1.19 | – |
| CN(C)c1ccc(-c2nc(COc3ccccc3)no2)cn1 | 0.903 | – |
| Cc1nc2ccccc2n1Cc1cc(C(=O)NCCOC(C)C)n[nH]1 | 0.918 | – |
| COC(=O)C1CCN(C(=O)c2cc(NS(C)(=O)=O)cc3ncn(CCc4ccccc4)c23)CC1 | – | 0.789 |
| O=C(c1cccs1)N1Cc2ccccc2OC(c2ccccc2)C1 (stereo unspecified) | – | 0.015 |
| COCC(=O)Nc1cc(C(=O)NCc2ccc(C)c(F)c2)cc2ncn(CCc3ccccc3)c12 | – | 0.731 |
| COCCn1c(CN2CCCCO2)cnc1S(=O)(=O)CC(C)(C)C | 1.08 | – |
| COc1ccc(CN2CCCC(CO)(Cc3ccccc3)C2)c(C)c1C (stereo unspecified) | 0.795 | – |
| COc1ccc(NC2CCCN(C(=O)c3ccccc3C(F)(F)F)C2)cc1OC (stereo unspecified) | 1.06 | – |
| O=C(NCC1CC(=O)N(C2CC2)C1)c1ccc2oc(Cc3ccc(Cl)cc3)nc2c1 (stereo unspecified) | 0.975 | – |
| CCn1cc(CN2CCC(c3ccc(F)c(F)c3)Sc3ccccc32)c(C)n1 (stereo unspecified) | – | -0.001 |
| CCOc1cc(CN2CCC(C(Cc3ccccc3F)N(C)C(=O)c3ccoc3C)CC2)ccc1O (stereo unspecified) | – | 0.861 |
| C=CCCC(=O)N1CCC(Oc2cccc(C(=O)NCc3ccccn3)c2)CC1 | 0.841 | – |

| Compound | bacterial growth OD600 (polymyxin B 1 µg/mL) | bacterial growth OD600 (polymyxin B 0.75 µg/mL) |
| --- | --- | --- |
| COc1ccccc1CC(=O)N1CCC(C(Cc2ccccc2)N(C)C(=O)c2ccccn2)CC1 (stereo unspecified) | – | 0.941 |
| CCc1noc(C)c1C(=O)N1CCCC(Nc2cccc(F)c2)C1 (stereo unspecified) | 0.847 | – |
| Cc1cccc(-n2ccnc2CN2CCCC(N3CCC(CO)CC3)C2)c1 (stereo unspecified) | 0.952 | – |
| CCC1CN(C(=O)c2cccc(C#CC(C)(C)O)c2)Cc2ccc(Cl)cc2O1 (stereo unspecified) | – | 0.004 |
| O=C(c1cc(-c2ccsc2)n[nH]1)N1CCCC(CO)(Cc2cccc(Cl)c2)C1 (stereo unspecified) | – | 0.014 |
| COc1ccc(-c2cnnc(NCc3cnn(C)c3C)n2)cc1F | – | 0.79 |
| COc1ccc(CCN2CC(C(=O)NCc3ccccc3)CCC2=O)cc1 (stereo unspecified) | 0.88 | – |
| CCOC(=O)N1CCN(Cc2nc(-c3ccccn3)no2)CC1 | 0.931 | – |
| COc1ccc(C(=O)NC2CC2)c(OC2CCN(Cc3sccc3C)CC2)c1 | – | 0.76 |
| O=C(NCC(F)(F)F)C1CCN(C2CCN(c3nc4ccccc4o3)CC2)CC1 | – | 0.882 |
| O=C(NCc1ccccc1)C1CCCN(C2CCN(CC3CCCC3)CC2)C1 (stereo unspecified) | – | 0.769 |
| O=C(NCCCN1CCCC(O)C1)c1ccc2oc(CCc3ccccc3)nc2c1 (stereo unspecified) | – | 0.757 |
| COc1cc(CNC(=O)c2sc3ncnc(N4CCCCCCC4)c3c2C)cc(OC)c1OC | – | 0.618 |
| O=C(N1CCC[C@H]1CO)C1(N2CCCCC2)Cc2ccccc2C1 | – | 0.868 |
| COc1cccc(CC2(CCC(=O)N3CCN(c4ncc5ccccc5n4)CC3)CCC(=O)N2)c1 (stereo unspecified) | – | 0.827 |

Quoted at random: two records from the list, in no set order.

| Compound | bacterial growth OD600 (polymyxin B 1 µg/mL) | bacterial growth OD600 (polymyxin B 0.75 µg/mL) |
| --- | --- | --- |
| COc1ccc(NC2CCCN(C(=O)c3ccccc3C(F)(F)F)C2)cc1OC (stereo unspecified) | 1.06 | – |
| COCCn1c(CN2CCCCO2)cnc1S(=O)(=O)CC(C)(C)C | 1.08 | – |
